The values below come from article PMC6406679.

Sequences of proteins named here, by UniProt entry; tags and fusion partners are left off.
UniProt Q96RU7: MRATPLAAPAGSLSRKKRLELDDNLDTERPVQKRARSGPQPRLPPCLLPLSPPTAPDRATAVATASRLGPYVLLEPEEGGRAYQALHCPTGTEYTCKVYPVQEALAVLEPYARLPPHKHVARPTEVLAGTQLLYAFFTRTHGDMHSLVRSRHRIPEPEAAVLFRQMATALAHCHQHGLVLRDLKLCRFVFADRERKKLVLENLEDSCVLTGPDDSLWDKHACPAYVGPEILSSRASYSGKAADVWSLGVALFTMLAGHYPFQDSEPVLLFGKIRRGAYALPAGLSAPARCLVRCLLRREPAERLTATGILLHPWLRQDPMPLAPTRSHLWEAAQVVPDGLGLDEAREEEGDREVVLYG
UniProt Q9NYF8: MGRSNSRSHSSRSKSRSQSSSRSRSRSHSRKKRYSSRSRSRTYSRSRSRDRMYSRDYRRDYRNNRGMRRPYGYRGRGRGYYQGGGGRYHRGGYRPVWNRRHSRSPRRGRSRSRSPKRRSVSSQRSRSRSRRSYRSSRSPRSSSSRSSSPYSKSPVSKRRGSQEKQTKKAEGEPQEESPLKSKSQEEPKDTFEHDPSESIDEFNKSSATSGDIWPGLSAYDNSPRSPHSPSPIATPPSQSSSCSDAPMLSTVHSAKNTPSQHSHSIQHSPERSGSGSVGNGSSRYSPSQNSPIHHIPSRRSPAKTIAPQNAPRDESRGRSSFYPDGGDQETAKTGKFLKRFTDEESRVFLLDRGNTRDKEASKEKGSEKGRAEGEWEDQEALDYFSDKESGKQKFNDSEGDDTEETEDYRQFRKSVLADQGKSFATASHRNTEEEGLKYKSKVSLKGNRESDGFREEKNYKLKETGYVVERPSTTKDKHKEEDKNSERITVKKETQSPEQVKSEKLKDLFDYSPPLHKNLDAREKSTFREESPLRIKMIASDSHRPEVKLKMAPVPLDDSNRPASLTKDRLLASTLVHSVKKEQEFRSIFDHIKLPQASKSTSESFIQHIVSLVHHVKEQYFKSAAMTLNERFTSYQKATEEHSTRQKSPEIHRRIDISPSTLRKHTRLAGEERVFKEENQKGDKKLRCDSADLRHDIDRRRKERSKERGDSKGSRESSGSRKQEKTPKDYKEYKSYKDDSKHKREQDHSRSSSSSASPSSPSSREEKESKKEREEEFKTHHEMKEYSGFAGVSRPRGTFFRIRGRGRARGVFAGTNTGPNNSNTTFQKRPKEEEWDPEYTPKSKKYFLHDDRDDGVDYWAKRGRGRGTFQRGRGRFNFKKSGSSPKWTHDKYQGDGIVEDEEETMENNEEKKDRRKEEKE

For the assay, the target named is Tribbles homolog 3 (TRIB3) (human (endogenous in MDA-MB-231)) (UniProt Q96RU7). The experiment in a line: co-IP; immunoprecipitation with anti-TRIB3 antibody from 231-RR cells, immunoblotting with antibodies of DDX5, BCLAF1 or BNIP1.

No constants are given. Whether binding was seen depends on the method and setting. In cells and extracts the contact can be indirect. Some results given as binding are weak or reduced against the parent protein; the word gives no strength.

For “BCL2-associated transcription factor 1 (BCLAF1) (from UniProt Q9NYF8 1-920)”, the binding result is on record as “binds”.

B1: BCL2 interacting protein 1 (BNIP1) (protein, UniProt Q12981 1-228)
chain: MAAPQDVHVRICNQEIVKFDLEVKALIQDIRDCSGPLSALTELNTKVKEKFQQLRHRIQDLEQLAKEQDKESEKQLLLQEVENHKKQMLSNQASWRKANLTCKIAIDNLEKAELLQGGDLLRQRKTTKESLAQTSSTITESLMGISRMMAQQVQQSEEAMQSLVTSSRTILDANEEFKSMSGTIQLGRKLITKYNRRELTDKLLIFLALALFLATVLYIVKKRLFPFL
As to B1, the binding entry was “binds”.
